The other results are listed elsewhere or left out. No stated cut-off is given here; in the data, active = 1.25 or more and inactive = the rest. Many values rest on one well or one pass, so single values are uncertain.

The source of these data is the supplement of paper PMC8551327.

This test has as its system Kcc2-LUC knock-in mouse primary cortical neurons (Kcc2 promoter reporter). Nature of the test: Kcc2 promoter-driven luciferase activity relative to vehicle control (fold of vehicle (ratio)); higher = stronger Kcc2 promoter activation (Kcc2 expression enhancer). The conditions noted are these: 100 nM; 48 h.
As to `COC(=O)C1C2CC3c4[nH]c5cc(OC)ccc5c4CCN3CC2CC(OC(=O)CCc2cc(OC)c(OC)c(OC)c2)C1OC` (stereo unspecified) [Dihydroisorescinnamine], the “Kcc2 promoter-driven luciferase activity” value is active: 1.32. Under `N#CC(=S)Nc1ccc(F)cc1` [1-Cyano-N-(4-fluorophenyl)methanethioamide] stands active: 1.26; under `O=c1[nH]c2ccc(O)cc2o1` [6-Hydroxy-2-benzoxazolinone], inactive: 1.23. In the case of `Oc1ccc(-c2nc(-c3cccnc3)c(-c3ccc(F)cc3)[nH]2)cc1` [4-[5-(4-Flourophenyl)-4-(3-pyridyl)-1H-imidazol-2-yl]phenol], the “Kcc2 promoter-driven luciferase activity” value was inactive: 1.04. `Cc1nc2c(nc1C)C(=O)c1ccccc1C2=O` [2,3-Dimethylbenzo[g]quinoxaline-5,10-dione]: the “Kcc2 promoter-driven luciferase activity” value is active: 1.46. As for `COC(=O)C1(C)CCCC2(C)c3cc(OC)ccc3C(=O)C(Br)C12` (stereo unspecified), the “Kcc2 promoter-driven luciferase activity” value was inactive: 1. In the case of `COc1cc2c(c(OC)c1OC)-c1ccc(OC)c(=O)cc1[C@@H](NC(=O)c1ccccc1)CC2` [N-Benzoyl-deacetylcolchicine], the “Kcc2 promoter-driven luciferase activity” value was inactive: 0.37.

With `COc1nc(C(Cl)(Cl)Cl)c(Cl)c(OC)c1Cl` [Penclomedine], the “Kcc2 promoter-driven luciferase activity” value is inactive: 1.13. As for `COc1cc(C(C)c2cc3c(cc2OCCO)OCO3)cc(OC)c1OC` (stereo unspecified), the “Kcc2 promoter-driven luciferase activity” value is inactive: 0.96. Consider `CC(C)(C)c1ccc(O)c(CN(Cc2cc(C(C)(C)C)ccc2O)C2CCCCC2)c1`, for which the “Kcc2 promoter-driven luciferase activity” value is inactive: 0.46. Regarding `CCCN(CCC)C(=S)Sc1nc(C)nc(N2CCN(c3nc(C)nc(SC(=S)N(CCC)CCC)c3[N+](=O)[O-])CC2)c1[N+](=O)[O-]`, the “Kcc2 promoter-driven luciferase activity” value is inactive: 0.97.
